Data as given in PubChem BioAssay AID1259254 (NCATS, 2017).
Purpose: 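Genome-wide screen for genes that prevent DNA re-replication in cancer cells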 (primary screen). Cells: human HCT116 colorectal cancer cells. Reagents: single siRNA against human genes. Duration: 3 days. Measured: 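Imaged Hoechst DNA stain sorts each cell into a cycle phase by DNA amount; per plate, G2 fraction set to 0% for non-targeting and 100% for GMNN siRNA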. Reading the numbers: G2 robust z-score: higher = more G2 cells, more excess DNA replication. Active means: 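An siRNA counts as active if its G2 robust z-score lies at least 5 MADs above the screen median; here such calls match roughly 38% of GMNN control or more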.
The whole screen tested about 59,000 reagents; this is a random part of them. About 1,550 of them (2.6%) were called active. 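G2 share is only a proxy for re-replication; each gene was hit by three separate siRNAs, and active genes were retested.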 A number with no mark means an inactive call. The numbers tell different reagents against one gene apart. Not all columns of the deposit are shown. No sequences are given here. The record does not give: the amount of reagent.

Gene,siRNA no.,G2 robust z-score
BEX1,1,0.38
BEX1,2,-0.432
BEX1,3,-0.708
FGF3,1,1.23
FGF3,2,0.469
FGF3,3,-0.603
MRPS10,1,-0.833
MRPS10,2,-0.0173
MRPS10,3,-0.572
LIPT2,1,0.0181
LIPT2,2,-0.554
LIPT2,3,-0.496
PCNT,1,0.523
PCNT,2,0.301
PCNT,3,1.49
RNASE12,1,3.27
RNASE12,2,0.705
RNASE12,3,0.311
ZNF195,1,-0.419
ZNF195,2,0.988
ZNF195,3,1.67
SCAMP2,1,-0.742
SCAMP2,2,-0.379
SCAMP2,3,-0.926
TMEM100,1,-0.658
TMEM100,2,0.468
TMEM100,3,0.737
LOC644215,1,0.666
LOC644215,2,-0.227
LOC644215,3,1.37
